Measured values from PubChem BioAssay (NCATS).
Several values for one entry are separate records, joined by “and”; a condition that tells them apart may be missing. Equal entries are not always repeated. The inconclusive results got no clear call from the source; some entries with a clear call stand among them for comparison. Where the call is inconclusive, the potency comes from a doubtful curve fit. Activity calls are given as the source filed them. Calls follow the shape of the dose curve; as a rule, active = well fitted cell-killing curve with a large enough effect; inconclusive = small, poorly fitted or top-dose-only effect, or effect the other way; inactive = no such curve, though single readings can be large or run the other way.

Assay: Quantitative High-Throughput drug screen in 47 multiple myeloma cell lines against the NCATS MIPE library collection: KMS12BM_JCRB cell viability assay (AID 1918971); also: nearly all actives have a fitted effect of over 35% in size
Conditions: KMS12BM myeloma viability, CellTiter-Glo ATP, 48 h; series mostly up to 45.8 µM
Excerpt: PI: Beverly A. Mock Ph.D.
Laboratory of Cancer Biology and Genetics,
Center for Cancer Research, National Cancer Institute,
National Institute of Health, Bethesda, Maryland
Drug resistance and disease progression are common in multiple myeloma (MM) patients, underscoring the need for new therapeutic combinations. […] We hypothesized that effective combinations would reduce MYC expression and enhance p16 activity. […] These preclinical data identify potentially useful drug combinations for evaluation in drug-resistant MM and reveal potential mechanisms of combined drug sensitivity.
Described herein is the primary MIPE qHTS used to cherrypick compounds. Validated compounds were then further tested for potential synergistic activiy.
[1] Peat TJ, Gaikwad SM, Dubois W, Gyabaah-Kessie N, Zhang S, Gorjifard S, Phyo Z, Andres M, Hughitt VK, Simpson RM, Miller MA, Girvin AT, Taylor A, Williams D, D'Antonio N, Zhang Y, Rajagopalan A, Flietner E, Wilson K, Zhang X, Shinn P, Klumpp-Thomas C, McKnight C, Itkin Z, Chen L, Kazandijian D, Zhang J, Michalowski AM, Simmons JK, Keats J, Thomas CJ, Mock BA. Drug combinations identified by high-throughput screening promote cell cycle transition and upregulate Smad pathways in myeloma. Cancer Lett. 2023 Aug 1;568:216284. doi: 10.1016/j.canlet.2023.216284. Epub 2023 Jun 24. PMID: 37356470; PMCID: PMC10408729.
SEQUENCE No. (e.g., 1, 2, 3, etc.); […] (e.g., Cells, Incubation, Reagent, etc.); VALUE and DESCRIPTION.
1; Cells; 5 uL; white, solid bottom 1536-well Greiner assay plate.
2; Compounds; 23 nL; Kalypsis pin tool (Wako USA) equipped with a 1536-well pin head to transfer to the assay plates.
3; Incubation; 48 hours; 37C incubation.
4; Reagent;5uL; CellTiter Glo (Promega).
5; Detector; 425V; Luminescence; Viewlux PerkinElmer.
NOTES (numbers refer to Sequence numbers above)
1. The cell-based screening methods employed in this study were like those previously published. Briefly, the corresponding myeloma cell lines were screened in 1,536-well plates with 500 cells, 5-uL per well for inhibition of cell viability (assessed by measuring ATP levels with CellTiterGlo).
2. NCATS MIPE 4.0 library of approved and investigational drugs were added using the Kalypsis pin tool. Wells treated with DMSO only for 100% viability and media only wells for 0% viability were used as controls.
3. The assay plates were covered and incubated for 48 hours in a 37C, 5% CO2 incubator with controlled humidity.
4. After 48 hours, CellTilter-GloTM luminescent substrate mix (Promega) reagent was added to the assay plate and plates we incubated for 5 min at room temperature.
5. Signal was measured as median relative luminescence units on a ViewLux (PerkinElmer) multiplate reader.
[1] Heske CM, Davis MI, Baumgart JT, Wilson K, Gormally MV, Chen L, Zhang X, Ceribelli M, Duveau DY, Guha R, Ferrer M, Arnaldez FI, Ji J, Tran HL, Zhang Y, Mendoza A, Helman LJ, Thomas CJ. Matrix Screen Identifies Synergistic Combination of PARP Inhibitors and Nicotinamide Phosphoribosyltransferase (NAMPT) Inhibitors in Ewing Sarcoma. Clin Cancer Res. 2017 Dec 1;23(23):7301-7311. doi: 10.1158/1078-0432.CCR-17-1121. Epub 2017 Sep 12. PMID: 28899971; PMCID: PMC6636827.
Potency is read from the fitted curve at half-maximal effect.

Row | Compound | Potency
1 | COc1cc2nc(N3CCN(C(=O)C4CCCO4)CC3)nc(N)c2cc1OC (stereo not given) | inconclusive: 0.0235 µM [rising, full curve, poor fit]
2 | COCCCN1CCC(NC(=O)c2cc(Cl)c(N)c3c2OCC3)CC1 | inconclusive: 37.2 µM [cytotoxic, partial curve, poor fit]
3 | C[N+]1(C)[C@@H]2C[C@@H](OC(=O)C(O)(c3cccs3)c3cccs3)C[C@H]1[C@@H]1O[C@@H]12 | inconclusive: 0.0074 µM [rising, full curve]
4 | NC(=O)c1ccc(-c2nc(-c3ccc4c(c3)OCCO4)c(-c3ccccn3)[nH]2)cc1 | inactive
5 | CC(=O)CC(c1ccccc1)c1c(O)c2ccccc2oc1=O (stereo not given) | inconclusive: 0.0026 µM [rising, full curve, poor fit]
6 | C[C@](N)(Cc1ccc(O)c(O)c1)C(=O)O | inconclusive: 20.9 µM [cytotoxic, partial curve, poor fit]
7 | CS(=O)c1ccc(-c2nc(-c3ccc(F)cc3)c(-c3ccncc3)[nH]2)cc1 (stereo not given) | inconclusive: 2.7 µM [cytotoxic, full curve, poor fit]
8 | COc1ccc([C@@H]2CC(=O)c3c(O)cc(O[C@@H]4O[C@H](CO[C@@H]5O[C@@H](C)[C@H](O)[C@@H](O)[C@@H]5O)[C@@H](O)[C@H](O)[C@@H]4O)cc3O2)cc1O | inactive and inconclusive: 23.5 µM [cytotoxic, single point]
9 | NC(=O)Cc1cccc(C(=O)c2ccccc2)c1N | inconclusive: 3.32 µM [cytotoxic, partial curve, poor fit]
10 | O=[N+]([O-])c1ccc(Nc2ccccc2-c2ccccc2)c2nonc12 | inconclusive: 33.2 µM [cytotoxic, partial curve, poor fit]
11 | O=C(Nc1nc2ccccc2n1CCN1CCOCC1)c1cccc([N+](=O)[O-])c1 | inconclusive: 37.2 µM [cytotoxic, single point]
12 | Cc1oncc1C(=O)Nc1ccc(C(F)(F)F)cc1 | inconclusive: 10.5 µM [cytotoxic, partial curve, poor fit]
13 | c1ccc2c(Cc3c[nH]c4ccccc34)c[nH]c2c1 | active: 20.9 µM
14 | CC1(C)CC(O)CC(C)(C)N1[O] | inactive
15 | O=c1cc(-c2ccccc2)oc2cc(O)cc(O)c12 | inconclusive: 6.62 µM [rising, partial curve, poor fit]
16 | Nc1ccc(-c2ccc3ncc4ccc(=O)n(-c5cccc(C(F)(F)F)c5)c4c3c2)cn1 | active: 0.0105 µM
17 | CCCc1nc2c(C)cc(-c3nc4ccccc4n3C)cc2n1Cc1ccc(-c2ccccc2C(=O)O)cc1 | inactive
18 | CN(C)c1ccc(Nc2nc(N)n(C(=O)c3c(F)cccc3F)n2)cc1 | inconclusive: 37.2 µM [cytotoxic, single point]
19 | O=C(NCC1CCCCN1)c1cc(OCC(F)(F)F)ccc1OCC(F)(F)F (stereo not given) | inconclusive: 0.105 µM [rising, partial curve, poor fit]
20 | O=c1c(-c2ccc(O)cc2)coc2cc(OC3O[C@H](CO)[C@H](O)[C@H](O)[C@H]3O)cc(O)c12 (stereo not given in full) | inconclusive: 33.2 µM [cytotoxic, single point]

Some of these compounds in order of SMILES length, high to low.
Row | Compound | Potency
8 | COc1ccc([C@@H]2CC(=O)c3c(O)cc(O[C@@H]4O[C@H](CO[C@@H]5O[C@@H](C)[C@H](O)[C@@H](O)[C@@H]5O)[C@@H](O)[C@H](O)[C@@H]4O)cc3O2)cc1O | inactive and inconclusive: 23.5 µM [cytotoxic, single point]
3 | C[N+]1(C)[C@@H]2C[C@@H](OC(=O)C(O)(c3cccs3)c3cccs3)C[C@H]1[C@@H]1O[C@@H]12 | inconclusive: 0.0074 µM [rising, full curve]
20 | O=c1c(-c2ccc(O)cc2)coc2cc(OC3O[C@H](CO)[C@H](O)[C@H](O)[C@H]3O)cc(O)c12 (stereo not given in full) | inconclusive: 33.2 µM [cytotoxic, single point]
16 | Nc1ccc(-c2ccc3ncc4ccc(=O)n(-c5cccc(C(F)(F)F)c5)c4c3c2)cn1 | active: 0.0105 µM
7 | CS(=O)c1ccc(-c2nc(-c3ccc(F)cc3)c(-c3ccncc3)[nH]2)cc1 (stereo not given) | inconclusive: 2.7 µM [cytotoxic, full curve, poor fit]
11 | O=C(Nc1nc2ccccc2n1CCN1CCOCC1)c1cccc([N+](=O)[O-])c1 | inconclusive: 37.2 µM [cytotoxic, single point]
10 | O=[N+]([O-])c1ccc(Nc2ccccc2-c2ccccc2)c2nonc12 | inconclusive: 33.2 µM [cytotoxic, partial curve, poor fit]
13 | c1ccc2c(Cc3c[nH]c4ccccc34)c[nH]c2c1 | active: 20.9 µM
12 | Cc1oncc1C(=O)Nc1ccc(C(F)(F)F)cc1 | inconclusive: 10.5 µM [cytotoxic, partial curve, poor fit]
9 | NC(=O)Cc1cccc(C(=O)c2ccccc2)c1N | inconclusive: 3.32 µM [cytotoxic, partial curve, poor fit]

Later entries.

Row | Compound | Potency
21 | N#Cc1ccc(NC(=O)Nc2ccccc2Br)c2n[nH]nc12 | inactive
22 | CC(C)(C)OC(=O)CN(Cc1ccc(Cl)cc1)Cc1ccc([N+](=O)[O-])s1 | inconclusive: 18.7 µM [cytotoxic, partial curve]
23 | Nc1nc2ccc(OC(F)(F)F)cc2s1 | active: 16.6 µM
24 | O=c1c(O)c(-c2ccc(O)c(O)c2)oc2cc(O)ccc12 | active: 26.4 µM
25 | O=Nc1c(-c2c(O)[nH]c3cc(Br)ccc23)[nH]c2ccccc12 | active: 16.6 µM
26 | CNC1CCCN(c2c(F)cc3c(=O)c(C(=O)O)cn(C4CC4)c3c2OC)C1 (stereo not given) | inactive
27 | CCC1(c2ccccc2)C(=O)NCNC1=O | inconclusive: 0.0012 µM [rising, full curve, poor fit]
28 | COc1ccc(-c2coc3cc(O)cc(O)c3c2=O)cc1 | inactive
29 | O=C(Nc1ccc(OC(F)(F)F)cc1)c1sccc1NCc1ccnc2ccccc12 | active: 14.8 µM
30 | CC(C)NCC(O)COc1ccc(CCOCC2CC2)cc1 (stereo not given) | inconclusive: 7.43 µM [cytotoxic, partial curve, poor fit]
31 | OCCC#Cc1nc(-c2ccc(F)cc2)c(-c2ccncc2)n1CCCc1ccccc1 | inconclusive: 33.2 µM [cytotoxic, single point]
32 | Cc1cccc(Nc2nc(-c3ccncc3)cs2)c1 | inconclusive: 0.0132 µM [rising, full curve, poor fit]
33 | O=C1NC(=O)C(c2ccccc2[N+](=O)[O-])=C1Nc1ccc(O)c(Cl)c1 | inconclusive: 3.72 µM [rising, partial curve, poor fit]
34 | Clc1ccc(C(Cn2ccnc2)OCc2ccc(Sc3ccccc3)cc2)c(Cl)c1 (stereo not given) | active: 26.4 µM
35 | CNC1[C@H](O)C(O[C@@H]2C(O)C(O[C@H]3O[C@H]([C@@H](C)NC)CC[C@H]3N)[C@@H](N)C[C@H]2N)OC[C@]1(C)O (stereo not given in full) | inactive
36 | COc1ccc(-c2coc3cc(O)ccc3c2=O)cc1 | inconclusive: 3.32 µM [cytotoxic, full curve, poor fit]
37 | CC1(C)CCC2=C(O1)c1ccccc1C(=O)C2=O | active: 20.9 µM
38 | CCN(CC)C(=S)SSC(=S)N(CC)CC | active: 0.0093 µM
39 | O=C(CCCN1CCC(O)(c2ccc(Cl)cc2)CC1)c1ccc(F)cc1 | inactive
40 | NC(CO)(CO)CCc1ccc(Sc2cccc(OCc3ccccc3)c2)cc1Cl | inconclusive: 29.6 µM [cytotoxic, single point]
